The text below walks through data of ChEMBL document CHEMBL4266045, “Understanding Molecular Drivers of Melanin Binding To Support Rational Design of Small Molecule Ophthalmic Drugs” (J Med Chem, 2018).

Each structure is given as a SMILES string.

The data set in a line: Lipophilicity, log D of compound. Particulars: octanol/water.

Consider `Nc1nc2ccc(OC(F)(F)F)cc2s1` [RILUZOLE], for which the logD (commonly the decadic logarithm of the distribution of all forms, ionised or not, between an organic phase and buffer at a given pH) is listed as 2.89.
